Reference: the supplement of paper PMC10338343
± gives the standard deviation. This is a selection; strong and weak results do not stand in their true shares. The uncertainty is large for many entries. The list shows a part of the results.

How the values were obtained:
[1] = test system: MILI (PIWIL2) piRISC loaded with L1MC piRNA (26 nt); experiment: pre-steady-state target cleavage rate (min^-1); higher = faster piRNA-guided slicing of the target; conditions: guide: L1MC piRNA 5'p-UAACUAAAUACUAUGCAAGCUGUAGG;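 further: 1 nM active piRISC with 0.1 nM target library at 33 °C single turnover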
In short: (§1)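 At 33 °C in HEPES–potassium acetate buffer, a transcribed, DNA-blocked target RNA library […] was exposed for 0–8 or 0–960 min to 1 nM active affinity-purified piRISC carrying a single synthetic guide, with or without 500 nM GTSF1 partner protein. Uncleaved targets were sequenced and normalised to depth and to weakly complementary targets. With three trials pooled and k3 capped at 0.0001 min^-1, a burst-and-steady-state fit produced the pre-steady-state cleavage rate.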

[2] = test system: EfPiwi piRISC loaded with L1MC piRNA (26 nt); experiment: pre-steady-state target cleavage rate (min^-1); guide: L1MC piRNA 5'p-UAACUAAAUACUAUGCAAGCUGUAGG; MIWI and MILI are mouse PIWI proteins and EfPiwi is from a freshwater sponge; tags in brackets are library labels; higher = faster piRNA-guided slicing of the target
In short: as §1

[3] = auxiliary factor: 500 nM mouse GTSF1
[4] = auxiliary factor: none (no GTSF1)
[5] = auxiliary factor: 500 nM Ephydatia muelleri Gtsf1
[6] = auxiliary factor: none (no Gtsf1)

| Sequence | pre-steady-state target cleavage rate [1, 3] | pre-steady-state target cleavage rate [1, 4] | pre-steady-state target cleavage rate [2, 5] | pre-steady-state target cleavage rate [2, 6] |
| --- | --- | --- | --- | --- |
| UCCUGGAUGUGCUUGCAUAGUAUUAACUUA | 0.00166 ± 0.0068 | 0.00143 ± 0.0052 | 0.000303 ± 0.019 | 0.000318 ± 0.026 |
| UCCUGGAUGUCGAUGCAUAGAAUAUAGUUA | 0.000556 ± 0.013 | 0.000476 ± 0.011 | 0.000114 ± 0.027 | 0.000308 ± 0.025 |
| UCCUGGAUGUCGAAGCAUAGUAUUCAGUUA | 0.00908 ± 0.0042 | 0.000999 ± 0.0047 | 0.000266 ± 0.0094 | 0.000364 ± 0.016 |
| UCCUGGUACAGCUUGCAAAGUAUUAAGUUA | 0.0919 ± 0.018 | 0.00406 ± 0.0027 | 0.00292 ± 0.0026 | 0.000747 ± 0.011 |
| UCCUGGAUGAGCUUGCAUAGUAUUCUAGUUA | 0.165 ± 0.029 | 0.00277 ± 0.0032 | 0.00246 ± 0.0037 | 0.000533 ± 0.021 |
| UCCUGGAACAGCAAGCAUAGUAUUUUCAAA | 0.0642 ± 0.018 | 0.000228 ± 0.014 | 0.00211 ± 0.0032 | 0.000337 ± 0.029 |
| UCCUGGAACAGCUUGGAUAGUAUAUAGUUA | 0.215 ± 0.027 | 0.00403 ± 0.0027 | 0.00939 ± 0.0043 | 0.000671 ± 0.012 |
| UCCUGGAAGUGCUUGCAUAGUAUUUAGUAA | 0.136 ± 0.022 | 0.00252 ± 0.0026 | 0.00343 ± 0.0027 | 0.000719 ± 0.012 |
| UCCUGGAUCAGCUUGCUAUGUAUUUAGUUA | 0.0176 ± 0.0068 | 0.00553 ± 0.0022 | 0.00195 ± 0.0049 | 0.00054 ± 0.014 |
| UCCUCCUACAGCUAGCAUAGUAUUUAGUUA | 0.27 ± 0.019 | 0.00812 ± 0.0022 | 0.0119 ± 0.0038 | 0.000917 ± 0.0069 |
| UCCUCCUACAGCUUGCAUACAAUUUAGUUA | 0.00727 ± 0.0046 | 0.00218 ± 0.0028 | 0.00233 ± 0.0029 | 0.000743 ± 0.0066 |
| UCCUGGAUGAGCUUGCAUAGUAUUUGUUA | 0.118 ± 0.028 | 0.00158 ± 0.0045 | 0.00242 ± 0.0028 | 0.000692 ± 0.012 |
| UCCUGGUAGAGCUUGCUUAGUAUUUAGUUA | 0.226 ± 0.012 | 0.00793 ± 0.0029 | 0.00885 ± 0.0045 | 0.0015 ± 0.008 |
| UCCUGGAUGAGCUUGCAUUGUAUUUAGAUA | 0.156 ± 0.038 | 0.00133 ± 0.005 | 0.00248 ± 0.0021 | 0.000448 ± 0.018 |
| UCCUGGAUCAGCUUGCAUAGUAUUUAGAUUA | 0.0478 ± 0.011 | 0.00315 ± 0.0026 | 0.00483 ± 0.0016 | 0.00131 ± 0.0073 |
| UCCUGCUACAGCUAGCAUACUAUUUAGUUA | 0.112 ± 0.018 | 0.0037 ± 0.0024 | 0.0063 ± 0.0019 | 0.000906 ± 0.0081 |
| UCCUGGAAGAGCUUGCAUAGUAUUUACUUA | 0.0737 ± 0.02 | 0.00232 ± 0.0032 | 0.00239 ± 0.0034 | 0.000721 ± 0.013 |
| UCCUGGAUGAGCUGCAUAGUAUUUAGUUA | 0.101 ± 0.013 | 0.00501 ± 0.0028 | 0.00786 ± 0.0028 | 0.00139 ± 0.007 |
| UCCUGGUACAGCUUGCAUAGUAUUUUGAUA | 0.0966 ± 0.025 | 0.00208 ± 0.0056 | 0.00381 ± 0.0026 | 0.00147 ± 0.0079 |
| UCCUGGAACAGCUUGCAUAGUAUUUAGAAA | 0.0838 ± 0.015 | 0.00244 ± 0.0024 | 0.00395 ± 0.0012 | 0.000244 ± 0.022 |
| UCCUGGAACAGCUUGCAUAGUAUUUGAGUUA | 0.209 ± 0.035 | 0.00299 ± 0.003 | 0.00552 ± 0.0019 | 0.000845 ± 0.01 |
| UCCUGGUACAGUCUUGCAUAGUAUUUAGUUA | 0.254 ± 0.033 | 0.0122 ± 0.0047 | 0.00209 ± 0.0046 | 0.000346 ± 0.04 |
| UCCUGGAACAGCUUGCAAGUAUUUAGUUA | 0.141 ± 0.013 | 0.00614 ± 0.0021 | 0.00284 ± 0.0019 | 0.00033 ± 0.022 |

| Sequence | pre-steady-state target cleavage rate [1, 3] | pre-steady-state target cleavage rate [1, 4] | pre-steady-state target cleavage rate [2, 5] | pre-steady-state target cleavage rate [2, 6] |
| --- | --- | --- | --- | --- |
| UCCUGCUACAGCUUGCAUACUAUAUAGUUA | 0.0515 ± 0.015 | 0.00182 ± 0.004 | 0.00148 ± 0.0028 | 0.000187 ± 0.021 |
| UCCUGGAUGAGCUUGCAAAGAAUUUAGUUA | 0.00266 ± 0.004 | 0.00185 ± 0.0039 | 0.000556 ± 0.0071 | 0.000118 ± 0.034 |
| UCCUGGUACAGCUUGCAUACUAAUUAGUUA | 0.0462 ± 0.019 | 0.00356 ± 0.0031 | 0.0011 ± 0.0041 | 0.000231 ± 0.016 |
| UCCUGGAUGAGCUUGCUUAGUAUUUAGAAA | 0.0548 ± 0.017 | 0.00171 ± 0.0037 | 0.00188 ± 0.0023 | 0.000275 ± 0.024 |
| UCCUGGAACAGCUUGCAUAGUAUUUAUUUA | 0.113 ± 0.026 | 0.00154 ± 0.005 | 0.00534 ± 0.0034 | 0.00106 ± 0.011 |
| UCCUGGAACAGCAUGCAUAGUUUUUAGUUA | 0.0418 ± 0.011 | 0.00553 ± 0.0023 | 0.00387 ± 0.0016 | 0.000326 ± 0.028 |
| UCCUGCUACAGCUUGCAUAGUAUUUAGUA | 0.335 ± 0.07 | 0.00209 ± 0.0033 | 0.00529 ± 0.0019 | 0.000582 ± 0.01 |
| UCCUGGUACAGCUUGCAUUGUAUAUAGUUA | 0.087 ± 0.018 | 0.00415 ± 0.0033 | 0.00226 ± 0.0033 | 0.000427 ± 0.02 |
| UCCUGCUACAGCUUGCAAAGUAUUUAGUUA | 0.13 ± 0.012 | 0.00686 ± 0.0019 | 0.00608 ± 0.0019 | 0.000611 ± 0.0088 |
| UCCUGGAACAGCUUGCAUAGUAUUAACUUA | 0.0356 ± 0.0096 | 0.00123 ± 0.0043 | 0.000962 ± 0.0047 | 0.000196 ± 0.043 |
| UCCUGGAACAGCUUGCAUAGUAUAUUAGUUA | 0.247 ± 0.019 | 0.00778 ± 0.0024 | 0.0104 ± 0.0043 | 0.00267 ± 0.0063 |
| UCCUGGAUGUGCUUGCAUAGUAUUUUGAUA | 0.0122 ± 0.0054 | 0.00139 ± 0.0051 | 0.0024 ± 0.0034 | 0.000773 ± 0.011 |
| UCCUGGUACAGCUUGCAUAGUAUUAUCAAA | 0.0127 ± 0.0058 | 0.00149 ± 0.0038 | 0.00129 ± 0.0031 | 0.000346 ± 0.019 |
| UCCUGGAUGAGCUUGCAUAGUAUUGAGUUA | 0.164 ± 0.036 | 0.00369 ± 0.0027 | 0.00461 ± 0.0019 | 0.000699 ± 0.014 |
| UCCUGGAUGUGCUGUGCAUAGUAUUUAGUUA | 0.131 ± 0.015 | 0.00886 ± 0.004 | 0.00568 ± 0.0024 | 0.000726 ± 0.016 |
| UCCUGGAUGUCCUAUGCAUAGUAUUUAGUUA | 0.0987 ± 0.02 | 0.00575 ± 0.0022 | 0.00508 ± 0.0022 | 0.000951 ± 0.008 |
| UCCUGGAUCAGCUUGCAUAGUAUUUUCUUA | 0.0452 ± 0.013 | 0.00144 ± 0.0038 | 0.00156 ± 0.0022 | 0.00033 ± 0.02 |
| UCCUGGAUGAGCAUGCAUAGAAUUUAGUUA | 0.0184 ± 0.008 | 0.00251 ± 0.0028 | 0.00156 ± 0.0029 | 0.000711 ± 0.011 |
| UCCUCCAACAGCUUGCAUAGUAUAUAGUUA | 0.234 ± 0.027 | 0.0056 ± 0.0022 | 0.00628 ± 0.0027 | 0.00107 ± 0.0064 |
| UCCUGGAACAGGCUUGCAUAGUAUUUAGUUA | 0.219 ± 0.019 | 0.0094 ± 0.0029 | 0.0145 ± 0.0037 | 0.00165 ± 0.0057 |
| UCCUGGGACAGCUUGCAUAGUAUUUAGUUA | 0.231 ± 0.024 | 0.0138 ± 0.0034 | 0.0163 ± 0.0059 | 0.00525 ± 0.0051 |
| UCCUGCUUCAGCAUGCAUAGUAUUUAGUUA | 0.291 ± 0.015 | 0.0121 ± 0.0034 | 0.0186 ± 0.0047 | 0.000522 ± 0.011 |

Single records (already shown).
UCCUGGAUGAGCUUGCAUAGUAUUUGUUA as listed: pre-steady-state target cleavage rate [1, 3] = 0.118 ± 0.028; pre-steady-state target cleavage rate [1, 4] = 0.00158 ± 0.0045; pre-steady-state target cleavage rate [2, 5] = 0.00242 ± 0.0028; pre-steady-state target cleavage rate [2, 6] = 0.000692 ± 0.012
UCCUGGAAGUGCUUGCAUAGUAUUUAGUAA as listed: pre-steady-state target cleavage rate [1, 3] = 0.136 ± 0.022; pre-steady-state target cleavage rate [1, 4] = 0.00252 ± 0.0026; pre-steady-state target cleavage rate [2, 5] = 0.00343 ± 0.0027; pre-steady-state target cleavage rate [2, 6] = 0.000719 ± 0.012
